Results: article PMC12412785

Target: T1, Arabidopsis thaliana BRCA2A (AtBRCA2A), yeast two-hybrid fusion (A. thaliana) (UniProt Q7Y1C5)
T1 sequence: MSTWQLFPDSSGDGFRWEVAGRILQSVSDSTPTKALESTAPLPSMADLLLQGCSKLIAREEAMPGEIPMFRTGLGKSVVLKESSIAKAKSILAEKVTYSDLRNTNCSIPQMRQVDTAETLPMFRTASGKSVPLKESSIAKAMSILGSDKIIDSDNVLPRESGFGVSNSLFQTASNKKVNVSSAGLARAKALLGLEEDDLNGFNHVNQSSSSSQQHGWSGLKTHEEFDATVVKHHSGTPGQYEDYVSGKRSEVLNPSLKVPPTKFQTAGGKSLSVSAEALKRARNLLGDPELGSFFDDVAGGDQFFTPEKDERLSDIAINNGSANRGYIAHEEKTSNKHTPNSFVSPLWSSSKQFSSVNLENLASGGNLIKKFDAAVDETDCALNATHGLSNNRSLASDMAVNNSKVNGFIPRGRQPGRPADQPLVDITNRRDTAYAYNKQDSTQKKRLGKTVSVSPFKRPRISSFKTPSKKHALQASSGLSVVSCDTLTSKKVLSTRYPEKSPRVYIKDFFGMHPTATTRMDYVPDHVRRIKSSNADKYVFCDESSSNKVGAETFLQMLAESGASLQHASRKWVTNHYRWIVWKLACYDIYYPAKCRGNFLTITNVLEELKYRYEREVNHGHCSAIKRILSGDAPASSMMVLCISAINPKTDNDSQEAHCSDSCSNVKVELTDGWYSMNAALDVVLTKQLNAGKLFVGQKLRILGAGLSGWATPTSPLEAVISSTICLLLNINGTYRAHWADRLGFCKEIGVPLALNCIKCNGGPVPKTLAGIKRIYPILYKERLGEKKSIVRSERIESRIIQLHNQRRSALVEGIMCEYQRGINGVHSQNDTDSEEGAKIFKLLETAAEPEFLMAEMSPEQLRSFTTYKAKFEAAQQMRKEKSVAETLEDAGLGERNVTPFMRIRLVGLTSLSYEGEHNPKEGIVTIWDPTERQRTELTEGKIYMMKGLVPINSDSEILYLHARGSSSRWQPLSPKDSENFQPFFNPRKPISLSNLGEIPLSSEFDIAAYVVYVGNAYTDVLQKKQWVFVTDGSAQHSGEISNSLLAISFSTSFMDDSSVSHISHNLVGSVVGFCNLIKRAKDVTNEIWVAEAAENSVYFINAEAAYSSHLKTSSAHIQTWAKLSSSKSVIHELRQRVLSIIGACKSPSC
Test: two-hybrid; Gal4BD and Gal4AD fusions, AH109 x Y187 diploids, five-fold serial dilutions on SD/-LWH and SD/-LWHA, 3–5 days at 30°C

## PpRAD51-2, yeast two-hybrid fusion (P. patens)
  binding: binds

These are yes or no findings as the source states them, for the method shown. Binding calls can cover weak binding; strength is not graded here. Sequences can lack the tags named with a protein.
